Laboratory results taken from PubChem BioAssay.
This is one part of the list. Entries with a potency or affinity are not part of this list. Where no call is shown, the source marks the result inconclusive.

Assay: Polyglutamine toxicity reduction dose response, whole organism Drosophila SCA1 model (AID 1595)
Conditions: at 1 µM, stronger effect = higher value

Row | Structure (SMILES) | suppression of toxicity
1 | COC(=O)Nc1nc2ccc(C(=O)c3ccccc3)cc2[nH]1 | 0
2 | Cn1cc[nH]c1=S | 2.86
3 | COc1ccc(-c2coc3cc(O)cc(O)c3c2=O)cc1 | 0
4 | COc1c2ccoc2cc2oc(=O)ccc12 | 2.86
5 | CCn1cc(C(=O)O)c(=O)c2cc(F)c(N3CCNC(C)C3)c(F)c21 (centres undefined) | 7.14
6 | NCCCCCC(=O)O | 5.71
7 | CCCCCCCCCCCCCCCCCCOCC(O)CO (centres undefined) | 0
8 | CN(C)CCN(Cc1cccs1)c1ccccn1 | 14.3
9 | C=C1c2cccc(O)c2C(O)=C2C(=O)[C@]3(O)C(O)=C(C(N)=O)C(=O)[C@@H](N(C)C)[C@@H]3[C@@H](O)[C@H]12 | 0
10 | Nc1nc2ncc(CNc3ccc(C(=O)N[C@@H](CCC(=O)O)C(=O)O)cc3)nc2c(=O)[nH]1 | 0
11 | CC1=C(CC(=O)O)c2cc(F)ccc2/C1=C\c1ccc(S(C)=O)cc1 (centres undefined) | 7.14
12 | COC(=O)[C@H](c1ccccc1Cl)N1CCc2sccc2C1 | 8.57
13 | CC1(C)O[C@@H]2CC3C4C[C@H](F)C5=CC(=O)C=CC5(C)C4C(O)CC3(C)[C@]2(C(=O)CO)O1 (some centres undefined) | 0
14 | CC(Cc1cccc(C(F)(F)F)c1)NCCOC(=O)c1ccccc1 (centres undefined) | 4.29
15 | CC1=C(/C=C/C(C)=C/C=C/C(C)=C/C(=O)O)C(C)(C)CCC1 | 0
16 | CCC(=O)OCC(=O)C1(OC(=O)CC)C(C)CC2C3CCC4=CC(=O)C=CC4(C)C3(Cl)C(O)CC21C (centres undefined) | 1.43
17 | CC(C)Cn1c(=O)n(C)c(=O)c2[nH]cnc21 | 15.7
18 | c1ccc([C@H]2CN3CCSC3=N2)cc1 | 0
19 | Oc1c(Cl)cc(Cl)c2cccnc12 | 0
20 | Cc1ccc(C)c(OCCCC(C)(C)C(=O)O)c1 | 7.14

Pulled one by one from the list above:
Row | Structure (SMILES) | suppression of toxicity
9 | C=C1c2cccc(O)c2C(O)=C2C(=O)[C@]3(O)C(O)=C(C(N)=O)C(=O)[C@@H](N(C)C)[C@@H]3[C@@H](O)[C@H]12 | 0
4 | COc1c2ccoc2cc2oc(=O)ccc12 | 2.86

(listing goes on)

Row | Structure (SMILES) | suppression of toxicity
21 | CCCCOc1ccc(OCCCN2CCOCC2)cc1 | 11.4
22 | NCCCC[C@H](N[C@@H](CCc1ccccc1)C(=O)O)C(=O)N1CCC[C@H]1C(=O)O | 0
23 | NC1=NCCN1CC(=O)O | 7.14
24 | C[C@@H]1CC2C3C[C@H](F)C4=CC(=O)C=CC4(C)C3(F)[C@@H](O)CC2(C)C1C(=O)COC(=O)C(C)(C)C (some centres undefined) | 4.29
25 | CC[N+](CC)(CC)CCOc1cccc(OCC[N+](CC)(CC)CC)c1OCC[N+](CC)(CC)CC | 15.7
26 | CC(C)[N+]1(C)C2CC[C@@H]1CC(OC(=O)C(CO)c1ccccc1)C2 (some centres undefined) | 5.71
27 | CCCCOc1cc(C(=O)NCCN(CC)CC)c2ccccc2n1 | 2.85
28 | Cc1c(C)c2c(c(C)c1O)CCC(C)(CCCC(C)CCCC(C)CCCC(C)C)O2 (centres undefined) | 2.85
29 | CCOC(=O)C(Cc1ccc(O)cc1)NC(C)=O (centres undefined) | 10
30 | NCCCCC(N)C(=O)NC(Cc1ccc(O)cc1)C(=O)NC(CCCCN)C(=O)O (centres undefined) | 0
31 | CNCCCN1c2ccccc2CCc2ccccc21 | 2.85
32 | CSCCC(NC=O)C(=O)NC(Cc1ccccc1)C(=O)O (centres undefined) | 2.86
33 | OCc1cc2c(cn1)[nH]c1ccccc12 | 1.43
34 | O=c1cc(-c2ccc(O)cc2)oc2cc(O)cc(O)c12 | 1.43
35 | CNC(=O)Oc1ccc2c(c1)[C@]1(C)CCN(C)[C@@H]1N2C | 2.85
36 | Nc1ncnc2c1ncn2C1OC(CO)[C@H](O)C1O (some centres undefined) | 0
37 | N[C@@H]1[C@@H](O)[C@H](O)[C@@H](CO)O[C@H]1O | 7.14
38 | CCC(Cc1c(I)cc(I)c(N)c1I)C(=O)O (centres undefined) | 0
39 | Nc1ccc(S(=O)(=O)Nc2cnc3ccccc3n2)cc1 | 4.29
